Experimental data as given in PMC10163288.
This is one part of the list.

B1: il10ra_site1_sap_24_mot_HHH_b1_01879_000000050_0001_1_18_H_._HHH_b1_03413_af2_0001_0000900032_0000002_0_0001_af2pred_dldesign_0_af2pred (protein)
chain: SSSSDAARARAAALRRRVTKAAEAKNYEELEKLLKELEALAKATDDADLLAYVDFEKKALSSSSS
B2: il10ra_site1_normal_mot_HHH_b1_05357_000000034_0001_23_39_H_._HHH_b2_03710_0002_0000200007_0000001_0 (protein)
chain: SSSSDREEFRERVEELLEEAEQISDRQRVSHLLIRAYALAHQANDPELEELVREVAKELVSSSSS
B3: il10ra_site1_sap_24_mot_HHH_b1_04177_000000174_0001_1_19_H_._HHH_b1_03006_0001_0000300020_0000001_0_0001_af2pred_0001 (protein)
chain: SSSSSHEEVFRLLREIAELDHEGDHERARELLEEAQEIAEEAGNLLFRVILEFLQEHLERESSSS
B4: il10ra_site1_sap_19_mot_HHH_b1_03314_af2_000000278_0001_42_55_H_._HHH_b1_07800_0001_0000100003_0000001_0_0001 (protein)
chain: SSSSSDVEELMKELALLSRRVSPEEQELIFQILMEAYHLLANGNPEEAKKLLEEALEELSSSSSS
B5: il10ra_site1_normal_mot_HHH_b2_02927_000000097_0001_42_56_H_._HHH_b2_00498_0001_0000200027_0000001_1 (protein)
chain: SSSSDEEEEEVEELLEEAKHIEDPRERARVLQEASHLALRAGDPEALQLVWRVVKELARRSSSSS
B6: il10ra_site1_sap_23_mot_HHH_b1_02997_000000220_0001_39_52_H_._HHH_b2_02338_af2_0001_0001000022_0000001_0_0001_af2pred_0001 (protein)
chain: SSSSDVEERVEELAKEVEELLENGNPHEAIQVIREIARLAAENNDDEALKIARELLKLVFSSSSS
B7: il10ra_site1_normal_mot_HHH_b2_07569_000000265_0001_38_56_H_._HHH_b2_03475_af2_0001_0000200009_0000001_1 (protein)
chain: SSSSSDEEEELEELLEELKKISDPEEASEVAARALRLAFRLGDPEAVQEIWEVFKKIFEGSSSSS
B8: il10ra_site1_normal_mot_HHH_b2_00092_000000181_0001_22_39_H_._HHH_b2_05043_0001_0000300048_0000003_0 (protein)
chain: SSSSAEESFELARRAVELVIRLYKEGNPEEAEKVVEEVKRELEELGNPLAARQLEALRRILSSSS
B9: il10ra_site1_normal_mot_HHH_b2_00441_000000147_0001_1_18_H_._HHH_b1_03059_0001_0000200008_0000001_0_af2pred_0001 (protein)
chain: SSSSTREAARIALHAVRRAFELGDEEFIRRSARFVRWLYEETGDPEVEEALEEIEELLERLSSSS
B10: il10ra_site1_normal_mot_HHH_b2_06767_000000020_0001_41_56_H_._HHH_b2_06012_0001_0000100001_0000001_0 (protein)
chain: SSSSSFEEAAQLQLRVSRAADEGDEELLEELRKELEELLKKLDDERARLAVRFALRLIEAHSSSS
B11: il10ra_site1_normal_mot_HHH_b1_00103_000000293_0001_1_15_H_._HHH_b1_01742_0001_0000100001_0000002_0 (protein)
chain: SSSSDTLEFSVEFALRHAERLLEEGDREKAELILEAILRHVREANNEELLEEIERLLEEVRSSSS
B12: il10ra_site1_sap_21_mot_HHH_b1_06912_af2_000000235_0001_1_15_H_._HHH_b1_06747_af2_0001_0000100002_0000001_1_0001_af2pred_0001 (protein)
chain: SDEELELAIKLAIEKNADPPSVEISVENNEIEVTVHGTDEAAREAETTVRAIAFFAGIPVEVERR
B13: il10ra_site1_normal_mot_5d0551e3c4357af680d60aaa850e4cea_0001_1_af2_000000133_0001_18_33_H_._HHH_b1_00482_0001_0000300004_0000002_0_af2pred_0001 (protein)
chain: SSSSSKLQQLVKALLRLVRQARNEELRETAKLSLKVLKEIAEELNDEEAEELLEEAEELLKSSSS
B14: il10ra_site1_normal_mot_HHH_b2_03220_af2_000000223_0001_23_40_H_._HHH_b1_05042_0001_0000100015_0000001_0 (protein)
chain: SSSSSRELSEEAWELLREILELIYEGDEERAQELLREVEEIAEEANSFALEYTVRILKEQLSSSS
B15: il10ra_site1_sap_16_mot_HHH_b1_06789_af2_000000041_0001_1_20_H_._HHH_b1_08320_0001_0000500022_0000001_0_0001 (protein)
chain: PVNEVIQRLVRLAFREGDPELLHALWKLVKRAAEGDPEAEELLEEVAELLKKDEEEAKRLLKELG
B16: il10ra_site1_sap_12_mot_HHH_b1_05357_000000034_0001_23_39_H_._HHH_b1_02159_0001_0000100003_0000001_0_0001 (protein)
chain: SSSSDARREIYELLREAVELDLEGNPEEAEEVLREAEELAREAGDRLFLAIVEYLQRILNSSSSS
B17: il10ra_site1_normal_mot_HHH_b1_05587_000000266_0001_24_40_H_._HHH_b2_08203_0001_0000100001_0000001_0_af2pred_0001 (protein)
chain: SSSSSSDEEHLKAAKRLLELAVKQGNEQLIEVAARAAKRIAELLNDEETLEEIEKILEEYSSSSS
B18: il10ra_site1_normal_mot_HHH_b2_06255_000000043_0001_1_20_H_._HHH_b2_08380_af2_0001_0000100007_0000001_0 (protein)
chain: SSSSSDELFKEVRRAIELASELKENGNPEEARELLEEVLELAEELGNFAVRFSIRRLLRALSSSS
B19: il10ra_site1_normal_mot_HHH_b1_06786_000000000_0001_1_20_H_._HHH_b1_00599_0001_0000200010_0000002_0_af2pred_0001 (protein)
chain: SSSSNRAEVSQEVIRLLREAFEIEDEEEAREIVEEAVRLAQEGNNLVLRISAELVLRQLRSSSSS
B20: il10ra_site1_normal_mot_HHH_b2_08186_000000021_0001_43_56_H_._HHH_b2_06182_af2_0001_0000600026_0000001_0 (protein)
chain: SSSSDEAEKEVRELIEEAEELAERGNPHEAARVLQEALRIAFEAKDDELLRLLWEVLKRLSSSSS
B21: il10ra_site1_sap_22_mot_HHH_b2_06199_000000213_0001_1_17_H_._HHH_b2_07920_0001_0000300012_0000001_0_0001 (protein)
chain: SEDVEEIEELLKRNVSRAIAALAHLLARSGDPEALKLAMELARLMFRDPEKARKLVEQILEELKK
B22: il10ra_site1_normal_mot_HHH_b1_01731_af2_000000210_0001_41_56_H_._HHH_b1_06757_af2_0001_0000500021_0000002_0 (protein)
chain: SSSDARLLRFASRVILELSEEFNLSQEQLRALAEVLLELLRRGVSEEEIEEILRQVAEELGSSSS
B23: il10ra_site1_normal_mot_HHH_b2_03434_000000017_0001_1_19_H_._HHH_b2_02344_0001_0000400063_0000001_0 (protein)
chain: SSSSSENDELYELLRELIRLASEGDEEKVEELAEEAKELAEKLNSRVLLELIEWVLRMFNSSSSS
B24: il10ra_site1_normal_mot_HHH_b1_06994_000000193_0001_40_55_H_._HHH_b2_08260_0001_0000100002_0000002_0 (protein)
chain: SSSSSSDEVEELAEEARRLAEEEGDEERAELVEAALRLYEQVGSEAFREALEAILRILSSSSSSS

target: il10ra, Q13651; assay: yeast display titration

Apparent Kd, inactive:
B1 no binding seen, B2 no binding seen, B3 no binding seen, B4 no binding seen, B5 no binding seen, B6 no binding seen, B7 no binding seen, B8 no binding seen, B9 no binding seen, B10 no binding seen, B11 no binding seen, B12 no binding seen, B13 no binding seen, B14 no binding seen, B15 no binding seen, B16 no binding seen, B17 no binding seen, B18 no binding seen, B19 no binding seen, B20 no binding seen, B21 no binding seen, B22 no binding seen, B23 no binding seen, B24 no binding seen
